Taken from: PubChem BioAssay AID504786 (Drosophila RNAi Screening Center, 2011)
The deposit covers about 21,000 reagents; shown is an unselected part of those that have a named target and a result. 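Primary screen; positive scores mean lost reporter signal, so the sign may be inverted from the usual convention.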 Reagents against one gene are numbered here. Names joined by + are all predicted targets of the reagent. Reagent sequences are not shown.

- Test: 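Positive regulators of HIF-driven reporter output in Drosophila cells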 (primary screen)
- Cell system: Drosophila S2 cells with a stable HIF luciferase reporter
- Knock-down reagent: long dsRNA against Drosophila genes, about 0.2 µg dsRNA per well of a 384-well plate
- Timing: three days of knock-down, then 20 h of DFO before reading
- Conditions: desferrioxamine (DFO) at 100 µM, an iron chelator that mimics hypoxia, for 20 h
- Measurement: 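Firefly luciferase driven by the mouse ldh-a hypoxia-response element, measured after 20 h of 100 µM DFO; z-scores per plate, higher means more signal lost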
- Direction: z-score: higher = stronger loss of HIF reporter signal

DCAF12 (GeneID 41460) | z-score, replicate 1: -0.2; z-score, replicate 2: -0.3
Mmp1 (GeneID 37949) | z-score, replicate 1: 0; z-score, replicate 2: -0.4
mam (GeneID 36555) #1 | z-score, replicate 1: 1.6; z-score, replicate 2: 2.4
mam (GeneID 36555) #2 | z-score, replicate 1: -0.4; z-score, replicate 2: 1.4
CG11379 (GeneID 31062) | z-score, replicate 1: -0.3; z-score, replicate 2: -0.2
Gr61a (GeneID 38098) | z-score, replicate 1: -0.4; z-score, replicate 2: -0.6
CG5493 + CG5327 | z-score, replicate 1: -0.4; z-score, replicate 2: -0.5
CG12659 (GeneID 50403) | z-score, replicate 1: -0.3; z-score, replicate 2: -0.9
Polr2I (GeneID 41741) | z-score, replicate 1: 4.3; z-score, replicate 2: 3.7
Hs2st (GeneID 44433) | z-score, replicate 1: -0.3; z-score, replicate 2: 0.3
CG34030 (GeneID 3885636) | z-score, replicate 1: -0.3; z-score, replicate 2: 0.3
CG43693 (GeneID 39231) #1 | z-score, replicate 1: 0.2; z-score, replicate 2: -0.3
CG43693 (GeneID 39231) #2 | z-score, replicate 1: -0.2; z-score, replicate 2: -0.3
Prat2 (GeneID 38753) | z-score, replicate 1: -0.2; z-score, replicate 2: 0.1
CG15514 (GeneID 43531) | z-score, replicate 1: -0.2; z-score, replicate 2: 0
ind (GeneID 2768974) | z-score, replicate 1: 4.8; z-score, replicate 2: 3
CG13907 (GeneID 38104) | z-score, replicate 1: -0.2; z-score, replicate 2: -0.2
bb8 (GeneID 42756) | z-score, replicate 1: -0.1; z-score, replicate 2: -0.2
CG32708 (GeneID 318161) | z-score, replicate 1: -0.1; z-score, replicate 2: 0.4
alka (GeneID 36145) | z-score, replicate 1: -0.4; z-score, replicate 2: -0.2
CG4119 (GeneID 31481) | z-score, replicate 1: 1.3; z-score, replicate 2: 1.9
Eip93F (GeneID 44936) #1 | z-score, replicate 1: -0.7; z-score, replicate 2: -0.2
Eip93F (GeneID 44936) #2 | z-score, replicate 1: -0.5; z-score, replicate 2: -0.7
CG3739 (GeneID 42320) | z-score, replicate 1: -0.7; z-score, replicate 2: -0.3
GNBP2 (GeneID 40033) | z-score, replicate 1: -0.3; z-score, replicate 2: -0.3
PQBP1 (GeneID 43004) | z-score, replicate 1: 0.1; z-score, replicate 2: 0.6
D2hgdh (GeneID 31184) | z-score, replicate 1: -0.3; z-score, replicate 2: -0.5
CG2247 (GeneID 32111) | z-score, replicate 1: -0.2; z-score, replicate 2: -0.7
msl-3 (GeneID 38779) | z-score, replicate 1: -0.2; z-score, replicate 2: -0.2
CG13339 (GeneID 36528) | z-score, replicate 1: -0.4; z-score, replicate 2: -0.5
COX5B (GeneID 33918) | z-score, replicate 1: 0.8; z-score, replicate 2: 1.2
Ir94c (GeneID 318727) | z-score, replicate 1: -0.4; z-score, replicate 2: 0.1
Sod2 (GeneID 36878) | z-score, replicate 1: -0.3; z-score, replicate 2: 0
Wdr92 (GeneID 39997) | z-score, replicate 1: -0.4; z-score, replicate 2: 0.4
CG34444 (GeneID 5740745) | z-score, replicate 1: -0.4; z-score, replicate 2: -0.8
rho (GeneID 38168) | z-score, replicate 1: -0.3; z-score, replicate 2: -0.5
Hr3 (GeneID 36073) #1 | z-score, replicate 1: 1.5; z-score, replicate 2: 1.2
Hr3 (GeneID 36073) #2 | z-score, replicate 1: -0.4; z-score, replicate 2: -0.3
CG5024 (GeneID 43117) | z-score, replicate 1: -0.2; z-score, replicate 2: -0.8
CG32121 (GeneID 317867) | z-score, replicate 1: -0.5; z-score, replicate 2: -0.3
NijA (GeneID 39215) | z-score, replicate 1: 0.2; z-score, replicate 2: 0.1
arx (GeneID 40061) | z-score, replicate 1: -0.4; z-score, replicate 2: -0.5
CG31928 (GeneID 326175) | z-score, replicate 1: -0.2; z-score, replicate 2: -0.3
bys (GeneID 31701) | z-score, replicate 1: 0; z-score, replicate 2: 1.2
abd-A (GeneID 42037) #1 | z-score, replicate 1: -0.7; z-score, replicate 2: -0.7
abd-A (GeneID 42037) #2 | z-score, replicate 1: 4.6; z-score, replicate 2: 5
CG12121 (GeneID 31866) | z-score, replicate 1: -0.4; z-score, replicate 2: -0.3
PolA2 (GeneID 43278) | z-score, replicate 1: 0.6; z-score, replicate 2: 0.5
chp (GeneID 43690) | z-score, replicate 1: 0.5; z-score, replicate 2: -0.5
CG14120 (GeneID 39463) | z-score, replicate 1: -0.2; z-score, replicate 2: 0
Damm (GeneID 36266) | z-score, replicate 1: -0.4; z-score, replicate 2: -0.5

Targets listed so far whose gene name begins with H or h:
Hs2st (GeneID 44433) | z-score, replicate 1: -0.3; z-score, replicate 2: 0.3
Hr3 (GeneID 36073) #1 | z-score, replicate 1: 1.5; z-score, replicate 2: 1.2
Hr3 (GeneID 36073) #2 | z-score, replicate 1: -0.4; z-score, replicate 2: -0.3
